Values quoted from earlier work as cited in US20040009220A1, “Rate-controlled beta blockers and process for forming same” (priority 2001, published 2004).

absorption profile, duodenum (duodenum): 12%
absorption profile, ileum/colon combined (ileum/colon combined): 38%
absorption profile, jejunum (jejunum): 19%
Structure (SMILES): CC(C)NCC(O)COc1ccc(CC(N)=O)cc1 (stereo not drawn) [Atenolol]
